Where a SMILES comes first, the peptide text is derived from it. Bridges are numbered along the chain shown (N, C = ends). The star is where a group is joined. X1 = O=C(CO)NCCOCCOCCOCCOCCOCCNC(=O)COCC(=O)*; X2 = NC(=O)COCC(=O)NCCOCCOCCOCCN*
Assay: Quench/derivatisation of acetaldehyde in Fluciclatide (18F) Injection with aldehyde scavenger AH111695, AH111930 determined by HPLC
Assay type: physicochemical
Description: In an experiment to analyse the content of acetaldehyde in a Fluciclatide (^18F) Injection sample using HPLC, the acetaldeyde was derivatized to an UV absorbing fluciclatide analogue AH111930 using AH111695 (Scheme 1).
After 10 hours of decay, 0.5 ml sample of Fluciclatide (^18F) Injection was mixed with 0.5 ml of aqueous 1.6 mM AH111695/77.2 mM aniline HCl and heated to 60° C. for 30 min. […] In contrast, the amount of acetaldehyde in a control sample that was unquenched (i.e., no aldehyde scavenger AH111695 was added) was later determined by GC analysis to be 6.9 μg. The deviation between the HPLC and GC results is due to the higher sensitivity of the HPLC method over the GC method.

## N=C(N)NCCC[C@@H]1NC(=O)[C@@H]2CSSC[C@H](NC(=O)[C@H](CC(=O)O)NC(=O)CNC1=O)C(=O)N[C@@H](Cc1ccccc1)C(=O)N[C@H](C(=O)NCCOCCOCCOCCNC(=O)COCC(N)=O)CSCC(=O)N[C@@H](CCCCNC(=O)COCC(=O)NCCOCCOCCOCCOCCOCCNC(=O)CO)C(=O)N2 [AH111695] ({CH2CO}-K(X1)CRGDCFC-X2; disulfide 2-6; thioether N-8)
0.5 ml Fluciclatide (18F) Injection after 10 hours of decay + 0.5 ml aqueous 1.6 mM AH111695/77.2 mM aniline HCl, 60° C. for 30 min, molar content of AH111930 by HPLC
  amount of acetaldehyde quenched by AH111695: 7.6 µg/mL
HPLC result compared with GC of unquenched control
  quench of acetaldehyde by addition of the aldehyde scavenger: complete quench
